# Data published in article PMC4254946.
# B1: Transketolase (protein, UniProt P29401 1-623)
# chain: MESYHKPDQQKLQALKDTANRLRISSIQATTAAGSGHPTSCCSAAEIMAVLFFHTMRYKSQDPRNPHNDRFVLSKGHAAPILYAVWAEAGFLAEAELLNLRKISSDLDGHPVPKQAFTDVATGSLGQGLGAACGMAYTGKYFDKASYRVYCLLGDGELSEGSVWEAMAFASIYKLDNLVAILDINRLGQSDPAPLQHQMDIYQKRCEAFGWHAIIVDGHSVEELCKAFGQAKHQPTAIIAKTFKGRGITGVEDKESWHGKPLPKNMAEQIIQEIYSQIQSKKKILATPPQEDAPSVDIANIRMPSLPSYKVGDKIATRKAYGQALAKLGHASDRIIALDGDTKNSTFSEIFKKEHPDRFIECYIAEQNMVSIAVGCATRNRTVPFCSTFAAFFTRAFDQIRMAAISESNINLCGSHCGVSIGEDGPSQMALEDLAMFRSVPTSTVFYPSDGVATEKAVELAANTKGICFIRTSRPENAIIYNNNEDFQVGQAKVVLKSKDDQVTVIGAGVTLHEALAAAELLKKEKINIRVLDPFTIKPLDRKLILDSARATKGRILTVEDHYYEGGIGEAVSSAVVGEPGITVTHLAVNRVPRSGKPAELLKMFGIDRDAIAQAVRGLITKA
# Biological target: HHV-6B (strain Z29) glycoprotein gB (HHV-6B strain Z29)
# Experiment: affinity purification with mass spectrometry; semi-purified HHV-6 viral particles (10^6 TCID50/ml) incubated with 1 mg HeLa protein lysate (PBS, no detergent) for 12 h at 4°C; IP with anti-HHV-6 gB antibody and agarose beads; washes with 20 mM Hepes, 200 mM NaCl, 1 mM EDTA, 10 mg/ml BSA; SDS-PAGE, silver staining, enriched bands identified by mass spectrometry
binder,measurement,value
B1,binding,binds

# Results are given in words; binding and its absence hold for the method and conditions named. In cells and extracts the contact can be indirect. These calls come from enrichment with a bait or labelling near it, and not all partners need be listed.
